Experimental data published in publication PMC5696171.

Target: T1, GST-ZO-1 (1520-1745) (UniProt P39447)
T1 sequence: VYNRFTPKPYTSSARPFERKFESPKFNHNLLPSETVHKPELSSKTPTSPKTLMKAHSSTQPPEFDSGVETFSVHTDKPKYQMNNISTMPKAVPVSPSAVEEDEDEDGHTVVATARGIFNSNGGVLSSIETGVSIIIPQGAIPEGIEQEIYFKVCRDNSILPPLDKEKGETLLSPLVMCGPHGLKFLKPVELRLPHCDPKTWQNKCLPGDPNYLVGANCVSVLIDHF
Assay: pull-down; GST-ZO-1 (1520-1745), ~10 ug, on glutathione-Sepharose 4B beads, incubated with lysates of transfected 293T cells; washed with buffer A (20 mM Tris-HCl, 150 mM NaCl, 1 mM EDTA, 10% glycerol, 1% NP-40, pH 7.4); eluted with 25 mM glutathione; western blot with anti-myc; only the target purified

binding: no binding
Substance: myc-tagged ARHGEF11exon38(+)

No constants are given. Whether binding was seen depends on the method and setting. In cells and extracts the contact can be indirect. Where a sequence is shown, tags or fusion partners need not be part of it.
